PubChem BioAssay AID1259425, University of Nebraska Medical Center | 2018
Shown is one part, drawn at random, of about 14,000 reagents. Not given: the time to read-out.

- Assay: 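Find knockdowns that reproduce the gene expression pattern seen when KSR1 is lost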 (primary screen)
- Cell system: HCT116 human colon cancer cells
- Knock-down reagent: siRNA pool against human genes, 50 nM siRNA
- Measured: 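mRNA of six signature genes measured together by branched-DNA assay after 50 nM siRNA pool, blank removed, divided by geometric mean of two housekeeping genes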
- Reading the numbers: BNIP3L mRNA: higher = more BNIP3L transcript after knockdown; NDRG1 mRNA: higher = more NDRG1 transcript after knockdown; BNIP3 mRNA: higher = more BNIP3 transcript after knockdown; ALDOC mRNA: higher = more ALDOC transcript after knockdown; ACSL5 mRNA: higher = more ACSL5 transcript after knockdown

target	BNIP3L mRNA, set 1	NDRG1 mRNA, set 1	BNIP3 mRNA, set 1	ALDOC mRNA, set 1	ACSL5 mRNA, set 1
C3AR1	0.226	0.377	0.492	0.0437	0.2
ZNF70	0.269	0.385	0.597	0.0859	0.141
GNRHR2	0.332	0.314	0.817	0.0713	0.126
ACYP1	0.071	0.109	0.214	0.017	0.0949
MMP27	0.101	0.165	0.222	0.0194	0.131
OVOL2	0.0722	0.0726	0.193	0.00897	0.12
GPKOW	0.108	0.21	0.241	0.00693	0.0942
PDCD11	0.182	0.395	0.334	0.0201	0.22
GLIS2	0.143	0.14	0.363	0.0343	0.114
TOP2B	0.105	0.067	0.272	0.0434	0.132
SGSM2	0.16	0.535	0.211	0.0492	0.271
POGLUT2	0.1	0.0611	0.247	0.0148	0.119
CNDP2	0.0703	0.129	0.421	0.064	0.226
NSG1	0.125	0.169	0.436	0.0256	0.137
HPCA	0.128	0.14	0.344	0.0583	0.162
U2SURP	0.204	0.833	0.267	0.0245	0.287
EPB41	0.133	0.104	0.231	0.0187	0.112
CNOT8	0.05	0.276	0.363	0.00222	0.365
GCLM	0.0557	0.119	0.245	0.0217	0.0826
MOXD1	0.0845	0.08	0.575	0.0239	0.126

Laid out differently: results already given.
target | BNIP3L mRNA, set 1 | NDRG1 mRNA, set 1 | BNIP3 mRNA, set 1 | ALDOC mRNA, set 1 | ACSL5 mRNA, set 1
ACYP1 | 0.071 | 0.109 | 0.214 | 0.017 | 0.0949
MMP27 | 0.101 | 0.165 | 0.222 | 0.0194 | 0.131
